Source: PubChem BioAssay AID1671190 (National Center for Advancing Translational Sciences (NCATS), 2021)
Out of some 580,000 compounds screened, about 6,100 (1.1%) were called active. About 15% were inconclusive and are not listed. The call rests on the fitted dose curve; in most records, active means well fitted inhibition curve with a large enough effect; inconclusive means small, poorly fitted or top-dose-only effect, or another doubt; inactive means no such curve, though single readings can be large or run the other way. The list shows a part of the results, in another mix than the full data. Where no call is shown, the source filed none. Some structures have more than one record in an assay (separate samples or runs), and their calls can disagree.

Protein sequences, listed by entry. Tags and fused reporters are not part of them.
UniProt P18054, whole entry, looked up: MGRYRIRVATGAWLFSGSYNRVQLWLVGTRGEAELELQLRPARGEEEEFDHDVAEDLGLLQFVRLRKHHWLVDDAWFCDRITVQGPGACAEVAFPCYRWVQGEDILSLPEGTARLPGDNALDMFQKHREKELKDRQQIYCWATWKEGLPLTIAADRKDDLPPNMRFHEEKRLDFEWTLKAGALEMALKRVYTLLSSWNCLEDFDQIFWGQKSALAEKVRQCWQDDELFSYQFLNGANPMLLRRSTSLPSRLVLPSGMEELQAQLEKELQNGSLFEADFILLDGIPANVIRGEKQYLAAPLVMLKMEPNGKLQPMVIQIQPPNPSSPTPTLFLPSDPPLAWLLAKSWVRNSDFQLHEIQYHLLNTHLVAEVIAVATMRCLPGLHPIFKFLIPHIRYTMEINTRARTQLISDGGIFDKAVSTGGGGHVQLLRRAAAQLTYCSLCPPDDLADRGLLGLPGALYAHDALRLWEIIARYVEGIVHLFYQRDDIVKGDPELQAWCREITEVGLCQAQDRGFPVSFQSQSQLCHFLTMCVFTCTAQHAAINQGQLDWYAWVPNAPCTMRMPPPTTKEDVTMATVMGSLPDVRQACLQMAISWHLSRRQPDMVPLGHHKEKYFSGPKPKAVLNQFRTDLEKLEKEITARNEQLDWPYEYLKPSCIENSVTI

What follows are molecules tested against Polyunsaturated fatty acid lipoxygenase ALOX12 (Homo sapiens) (UniProt P18054) (assay: Primary qHTS assay for inhibitors of human arachidonate 12S-lipoxygenase (ALOX12): Round 2). Conditions: purified 12hLO, xylenol orange hydroperoxide absorbance; activity change, negative = inhibition: at 0.00344 µM (top of the series).
How it was run: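 Hydroperoxide product was detected by ferrous iron/xylenol orange as the 573 to 405 nm absorbance ratio. Arachidonic acid at 40 uM (final) was turned over for 30 min at room temperature by 150 nM human 12hLO, pH 7.0 Hepes buffer, after 15 min compound preincubation.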
On the % scale 0 is the no-effect control and ±100 the full control effect; potency means the concentration at half of the fitted maximal effect.

Q: With `CCCCCN(CCCCC)C(=O)C(CCC(=O)O)NC(=O)c1ccc(Cl)c(Cl)c1` (stereo not given) as the molecule, how does the activity change, negative = inhibition read?
A: -27%

Q: With `CC(C)NCC(O)c1ccc(O)c(O)c1` (stereo not given) as the molecule, how does the activity change, negative = inhibition read?
A: 19.5%

Q: Which Potency does the source give for `COc1ccccc1Cc1c(-c2ccc(C#N)cc2)nc2ccc(Br)cn12` here?
A: active: 25.1 µM

Q: For `Clc1ccc(CNCc2ccccc2Cn2cncn2)c(Cl)c1`, which Potency is on record?
A: active: 44.7 µM

Q: How did the activity change, negative = inhibition turn out when `NC(=O)n1c(O)c(C(=O)c2cccs2)c2cc(Cl)ccc21` was run?
A: 12.8%

Q: For `COc1ccc(S(=O)(=O)N2CCc3ccccc32)cc1C(=O)N1CCN(c2ncccn2)CC1`, which Potency is on record?
A: active: 39.8 µM

Q: With `CCO[C@H](Cc1ccc(OCCc2ccc(OS(C)(=O)=O)cc2)cc1)C(=O)O` as the molecule, how does the activity change, negative = inhibition read?
A: -3.11%

Q: Which Potency does the source give for `CCc1ccc(NCc2cc(=O)n3[nH]c(-c4ccccc4)nc3n2)cc1` here?
A: active: 8.91 µM

Q: Which Potency does the source give for `COc1ccc(-c2nc3ccccc3c(=O)n2NC(=S)N(C)C)cc1` here?
A: active: 35.5 µM

Q: How did the Potency turn out when `CCN(CC)CCOc1ccc2c(c1)C(=O)c1cc(OCCN(CC)CC)ccc1-2` was run?
A: active: 22.4 µM

Q: How did the Potency turn out when `Cc1cc(C)cc(C(=O)NC(=S)Nc2ccc(-c3cc4ccccc4oc3=O)cc2)c1` was run?
A: active: 10 µM

Q: For `O=C1CC2(CCCC2)CC(=O)N1`, which activity change, negative = inhibition is on record?
A: -39.8%

Q: For `CCN(CC)c1ccc(C(=C2C=CC(=[N+](CC)CC)C=C2)c2cc(S(=O)(=O)O)ccc2S(=O)(=O)[O-])cc1`, which activity change, negative = inhibition is on record?
A: -32.1%

Q: `O=C(Nc1cc(=O)[nH]c2nc(C(F)(F)F)nn12)c1ccc(Cl)cc1Cl` was tested. Which Potency did it give?
A: active: 25.1 µM

Q: How did the activity change, negative = inhibition turn out when `Cc1cc2nc3ccc(=[N+](C)C)cc-3sc2cc1N` was run?
A: 16.5%

Q: With `CCCCC(CC)COC(=O)C(C#N)=C(c1ccccc1)c1ccccc1` (stereo not given) as the molecule, how does the activity change, negative = inhibition read?
A: -10.9%

Q: How did the activity change, negative = inhibition turn out when `Cc1ccccc1OCC(O)CO` (stereo not given) was run?
A: 45.1%

Q: Which activity change, negative = inhibition does the source give for `CC1=C(CC(=O)O)c2cc(F)ccc2/C1=C\c1ccc(S(C)(=O)=O)cc1` here?
A: -19.7%

Q: For `CC(C)(C)C(=O)C(Oc1ccc(Cl)cc1)n1ccnc1` (stereo not given), which activity change, negative = inhibition is on record?
A: 3.65%

Q: For `NC(=NCCCCCCN=C(N)/N=C(\N)Nc1ccc(Cl)cc1)/N=C(\N)Nc1ccc(Cl)cc1`, which activity change, negative = inhibition is on record?
A: 19%

Q: How did the Potency turn out when `CC(C)c1ccc(Nc2nnc(SCC(=O)c3nnc(-c4ccccc4)o3)s2)cc1` was run?
A: active: 39.8 µM

Q: With `CC1(C)S[C@@H]2[C@H](NC(=O)C(C(=O)O)c3ccccc3)C(=O)N2[C@H]1C(=O)O` (stereo not given in full) as the molecule, how does the activity change, negative = inhibition read?
A: 4.96%

Q: Which Potency does the source give for `O=C(NC(=S)Nc1cccc(NC(=S)NC(=O)c2ccccc2)c1)c1ccccc1` here?
A: active: 14.1 µM

Q: With `CC(C)OC(=O)OCOP(=O)(CO[C@H](C)Cn1cnc2c(N)ncnc21)OCOC(=O)OC(C)C` as the molecule, how does the activity change, negative = inhibition read?
A: 4.67%

Q: `Cc1ccccc1-c1nc(Nc2ccncc2)c2ccccc2n1` was tested. Which Potency did it give?
A: active: 35.5 µM

Q: How did the Potency turn out when `CC(=O)c1c(C)oc2ccc(NS(=O)(=O)c3ccc(O)c(C(=O)O)c3)cc12` was run?
A: active: 15.8 µM

Q: Which Potency does the source give for `CCSc1nc2c([nH]1)c(=O)n(C)c(=S)n2C` here?
A: active: 10 µM

Q: For `CCN(CC)CCNC(C(=O)OCCC(C)C)c1ccccc1` (stereo not given), which activity change, negative = inhibition is on record?
A: 7.03%

Q: `O=c1[nH]c2ccccc2n1CCCN1CCN(C(c2ccccc2)c2ccccc2)CC1` was tested. Which activity change, negative = inhibition did it give?
A: -32.2%

Q: For `S=c1sscc1-c1ccccc1`, which Potency is on record?
A: active: 5.62 µM

Q: How did the activity change, negative = inhibition turn out when `O=C(O)c1ccccc1C(=O)Nc1ccc(S(=O)(=O)Nc2nccs2)cc1` was run?
A: -5.2%

Q: `S=c1nc(-c2ccccc2)n(-c2ccccc2)[nH]1` was tested. Which Potency did it give?
A: active: 44.7 µM

Q: For `CC(=O)OC(C)OC(=O)C(C)c1ccc(-c2ccccc2)c(F)c1` (stereo not given), which activity change, negative = inhibition is on record?
A: 16%

Q: `OCCN(CCO)c1nc(N2CCCCC2)c2nc(N(CCO)CCO)nc(N3CCCCC3)c2n1` was tested. Which activity change, negative = inhibition did it give?
A: -43.7%

Q: With `C/C(=N\NC(=S)NC1CCCCC1)c1ccc(C)o1` as the molecule, how does the Potency read?
A: active: 5.01 µM

Q: How did the Potency turn out when `O=C(N/N=C/c1ccc(-c2ccc(S(=O)(=O)Nc3ncccn3)cc2)o1)c1cc2ccccc2cc1O` was run?
A: active: 12.6 µM

Q: `CC1CC(OC(=O)c2ccccc2O)CC(C)(C)C1` (stereo not given) was tested. Which activity change, negative = inhibition did it give?
A: 0.744%

Q: For `O=C1CC(c2ccc(Cl)cc2)CC(=O)N1`, which activity change, negative = inhibition is on record?
A: 21.1%

Q: For `CC(C)(C)c1cc(C=O)cc(C(C)(C)C)c1O`, which activity change, negative = inhibition is on record?
A: 8.73%

Q: For `O=C(CCCN1CCN(c2ccccn2)CC1)c1ccc(F)cc1`, which activity change, negative = inhibition is on record?
A: 7.89%

Q: `N[C@H](Cc1c[nH]c2ccccc12)C(=O)O` was tested. Which activity change, negative = inhibition did it give?
A: 46.1%

Q: Which Potency does the source give for `COc1cccc(C2C(C(=O)c3ccc(C)o3)=C(O)C(=O)N2c2cc(C)on2)c1` (stereo not given) here?
A: active: 50.1 µM

Q: Which activity change, negative = inhibition does the source give for `Nc1c2ccccc2nc2ccccc12` here?
A: -6.98%

Q: How did the activity change, negative = inhibition turn out when `CC[C@@]1(c2ccccc2)NC(=O)N(C)C1=O` was run?
A: 24.8%

Q: `COC(=O)c1nc(Cl)c(Cl)nc1N` was tested. Which activity change, negative = inhibition did it give?
A: -32%

Q: For `Cl/C(=C\n1cncn1)c1ccc(Cl)cc1Cl`, which activity change, negative = inhibition is on record?
A: 30.9%

Q: For `CC(=O)NCc1c(I)c(NC(C)=O)c(I)c(C(=O)O)c1I`, which activity change, negative = inhibition is on record?
A: 3.26%

Q: For `COc1ccc(C2(CNC(=O)/C=C\c3ccco3)CCCC2)cc1OC`, which Potency is on record?
A: active: 44.7 µM

Q: `NC(=O)CCCCC1CCSS1` (stereo not given) was tested. Which activity change, negative = inhibition did it give?
A: 49.7%

Q: Which activity change, negative = inhibition does the source give for `NS(=O)(=O)c1cc2c(cc1C(F)(F)F)NCNS2(=O)=O` here?
A: -17.9%
